{"source": "PubChem BioAssay AID540276", "about": "(National Center for Advancing Translational Sciences (NCATS), 2011)", "note": "The whole screen tested about 300,000 compounds, of which about 5,400 (1.8%) were called active. The shares of active, inactive and inconclusive entries below differ from those in the screen. The call rests on the fitted dose curve; tested in HEK293 cells. A potency beside an inconclusive call is a rough fit, not a confirmed value. Potency means the concentration at half of the fitted maximal effect.", "data": [{"experiment": "qHTS for inhibitors of binding or entry into cells for Marburg Virus", "conditions": "Marburg virus pseudotyped entry inhibition, cell reporter; series mostly up to 37.8 µM", "values": [{"smiles": "COc1ccc(OC)c(S(=O)(=O)N2CCCC(C(=O)NCCc3ccccc3)C2)c1", "note": "(centres undefined)", "Potency": "inconclusive: 15.8 µM [activator, single point]"}, {"smiles": "COc1ccc(C2NC(=S)NC3=C2CCCC3=C2SCCS2)cc1", "note": "(centres undefined)", "Potency": "inconclusive: 11.2 µM [inhibitor, single point]"}, {"smiles": "CCN1CCN(c2cc(C)c3cc(NC(=O)c4cccs4)ccc3n2)CC1", "Potency": "inconclusive: 35.5 µM [inhibitor, partial curve, poor fit]"}, {"smiles": "CCCSc1nc(N)c2c3c(sc2n1)CN(C)CC3", "Potency": "inactive"}, {"smiles": "Cc1ccc(Nc2nc3nonc3nc2Nc2cccc(C(F)(F)F)c2)cc1Cl", "Potency": "inconclusive: 7.08 µM [inhibitor, full curve, poor fit]"}, {"smiles": "O=C1Nc2ccc3c(c2C1=Cc1cc2c(cc1Br)OCO2)OCO3", "Potency": "inconclusive: 0.398 µM [inhibitor, full curve, poor fit]"}, {"smiles": "CC(OC(=O)c1ccccc1Oc1ccccc1)C(=O)NC1CC1", "note": "(centres undefined)", "Potency": "inactive"}, {"smiles": "CN(C)/C=C(/C(=O)c1ccc(Cl)cc1)n1cncn1", "Potency": "inconclusive: 35.5 µM [inhibitor, single point]"}, {"smiles": "Cc1[nH]n2c(=O)c3c(nc2c1-c1ccccc1)CCCC3", "Potency": "inactive"}, {"smiles": "COc1ccccc1OCCn1c(NC(=O)c2ccccc2Cl)nc2ccccc21", "Potency": "inconclusive: 35.5 µM [inhibitor, single point]"}, {"smiles": "CC1CCN(C(=S)c2cn(Cc3ccccc3F)c3ccccc23)CC1", "Potency": "inconclusive: 7.94 µM [inhibitor, partial curve, poor fit]"}, {"smiles": "COc1ccccc1-n1nnnc1S(=O)(=O)Cc1ccc(Cl)cc1", "Potency": "inconclusive: 14.1 µM [inhibitor, partial curve, poor fit]"}, {"smiles": "COc1cccc(-n2c(SCC(=O)N3c4ccccc4CC3C)nnc2-c2ccco2)c1", "note": "(centres undefined)", "Potency": "inconclusive: 35.5 µM [inhibitor, single point]"}, {"smiles": "CN(C)S(=O)(=O)c1cccc(NC(=O)COC(=O)c2cc3ccccc3oc2=O)c1", "Potency": "inconclusive: 35.5 µM [activator, single point]"}, {"smiles": "Brc1cccc(OCCN2CCCCC2)c1", "Potency": "inconclusive: 15.8 µM [inhibitor, single point]"}, {"smiles": "Nc1nnnn1CC(=O)N/N=C/c1cc([N+](=O)[O-])ccc1Cl", "Potency": "inconclusive: 4.47 µM [inhibitor, single point]"}, {"smiles": "CC(=O)SCC(=O)N=c1sc2cc(F)ccc2n1C", "Potency": "inconclusive: 3.55 µM [activator, single point]"}, {"smiles": "O=c1cc(-c2ccccc2)[nH]n1-c1nc2ccccc2[nH]1", "Potency": "inconclusive: 35.5 µM [inhibitor, single point]"}, {"smiles": "O=C(NC1CCCC1)C(c1ccccc1)N(Cc1ccccc1)C(=O)c1csnn1", "note": "(centres undefined)", "Potency": "inconclusive: 35.5 µM [inhibitor, partial curve, poor fit]"}, {"smiles": "Cc1ccc(N/C(=C\\C(=O)c2ccccc2)C(=O)O)cc1", "Potency": "inconclusive: 11.2 µM [inhibitor, single point]"}, {"smiles": "COc1ccc(CN(C)C(=O)c2ccc(Oc3ccccc3)cc2)cc1F", "Potency": "inconclusive: 11.2 µM [inhibitor, partial curve, poor fit]"}, {"smiles": "O=C(Nc1ccccc1[N+](=O)[O-])c1nc[nH]c1C(=O)NCCO", "Potency": "inconclusive: 0.411 µM [inhibitor, full curve, poor fit]"}, {"smiles": "COc1ccccc1-c1nn2c(-c3ccco3)nnc2s1", "Potency": "inconclusive: 0.461 µM [activator, full curve, poor fit]"}, {"smiles": "CCn1cc(Br)c(-c2nc3ccccc3c(=O)n2N)n1", "Potency": "inactive"}, {"smiles": "CCOC(=O)CN1C(=O)COc2ccc(C(C)(C)C)cc21", "Potency": "inactive"}, {"smiles": "O=C(NCCCO)c1cc2c([nH]c3ccccc32)c(-c2ccccc2)n1", "Potency": "inconclusive: 22.4 µM [inhibitor, single point]"}, {"smiles": "CCC(C(=O)OCC(=O)Nc1cc(C)ccc1OC)c1ccccc1", "note": "(centres undefined)", "Potency": "inactive"}, {"smiles": "CCOCCc1c(O)nc(SCCOc2ccc(C)c(C)c2)[nH]c1=O", "Potency": "inactive"}, {"smiles": "COc1ccc(-c2cc3c(c4c2ccn4C)C2CCC3C2)cn1", "note": "(centres undefined)", "Potency": "inconclusive: 0.223 µM [inhibitor, full curve, poor fit]"}, {"smiles": "CCOC(=O)C1CCCN1C(=O)c1ccc(OC)c(Br)c1", "note": "(centres undefined)", "Potency": "inconclusive: 31.6 µM [activator, single point]"}, {"smiles": "c1ccc(Cn2nnnc2C(c2cccs2)N2CCCCCC2)cc1", "note": "(centres undefined)", "Potency": "inconclusive: 23.1 µM [inhibitor, single point]"}, {"smiles": "O=C(NCCn1cccc1)c1cccc2ccccc12", "Potency": "inactive"}, {"smiles": "COc1ccc(OCC(O)CN(C2CCCCC2)C2CCCCC2)cc1", "note": "(centres undefined)", "Potency": "inconclusive: 10.3 µM [inhibitor, partial curve, poor fit]"}, {"smiles": "Cc1ccc(S(=O)(=O)N(C)C)cc1-n1c(SCC(=O)Nc2ccc(F)cc2)nc2ccccc2c1=O", "Potency": "inactive"}, {"smiles": "CC(=O)Nc1ccc(S(=O)(=O)N(C)CC(=O)OCC(=O)c2ccc[nH]2)cc1", "Potency": "inactive"}, {"smiles": "C[C@@H](CCc1ccc(O)cc1)NCCc1ccc(O)c(O)c1", "Potency": "inconclusive: 0.0291 µM [inhibitor, partial curve, poor fit]"}, {"smiles": "CCOC(=O)C1CCN(c2cc3c(cc2NC(=O)c2ccc(Cl)cc2)n(C)c(=O)n3C)CC1", "Potency": "inactive"}, {"smiles": "CC1CN(C(=O)c2ccc3c(c2)OCO3)CC(C)O1", "note": "(centres undefined)", "Potency": "inactive"}, {"smiles": "CCOc1ccc(Nc2oc(-c3ccc(COc4ccc(OC)cc4)o3)nc2C#N)cc1", "Potency": "inactive"}, {"smiles": "O=C(NCCN1CCCCC1)Nc1cccc(C(F)(F)F)c1", "Potency": "inconclusive: 35.5 µM [inhibitor, single point]"}, {"smiles": "COc1ccc(OCC(O)Cn2c(N3CCCCC3)nc3c2c(=O)n(C)c(=O)n3C)cc1", "note": "(centres undefined)", "Potency": "inconclusive: 11.2 µM [inhibitor, single point]"}, {"smiles": "O=C(Nc1ccccc1C(=O)O)c1ccc(Br)c(S(=O)(=O)NCc2ccccc2)c1", "Potency": "inconclusive: 6.31 µM [inhibitor, single point]"}, {"smiles": "Cc1cc(C)c(NC(=O)CN(C2CCCCC2)C2CCCCC2)c(C)c1", "Potency": "inconclusive: 7.3 µM [inhibitor, partial curve]"}, {"smiles": "O=C(Nc1cccc(Cl)c1)Nc1nc(-c2ccc(Cl)cc2)cs1", "Potency": "inconclusive: 14.1 µM [inhibitor, single point]"}]}]}
